Experimental data: PubChem BioAssay AID2685 (National Center for Advancing Translational Sciences (NCATS), 2010)
The other results are listed elsewhere or left out. Shown are side measurements of this screen, not its main read-out; they come without a call. Compounds called inactive in the main read-out are mostly missing here. Potencies come from curve fits of mixed quality, noted in brackets.

Experiment: qHTS Assay for Lipid Storage Modulators in Drosophila S3 Cells;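 for cell number change: cells counted by Cell Tracker Red CMTPX staining in the red channel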
Conditions: BODIPY lipid droplet fluorescence, 18-24 h; for cell number change: measured here: cell count max response, cells fed with added oleic acid
In short: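 Laser-scanning cytometry quantifies lipid droplet accumulation (500–530 nm total intensity; droplet/cell object ratio) in oleic acid-fed (400 uM added) Drosophila S3 cells treated with a concentration series. 20 uM Triacsin C defined 100% inhibition.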

[1] = measured here: lipid fluorescence (Fed channel) AC50, cells fed with added oleic acid
[2] = measured here: cell number channel AC50, cells fed with added oleic acid

Row | SMILES | cell number change | AC50 [1] | AC50 [2]
1 | CCN(CC(=O)Nc1cccc(S(=O)(=O)N(C)c2ccccc2)c1)Cc1ccccc1 | -0.501% | 2.06 µM [falling, partial curve] | –
2 | COc1ccc(N(CC(=O)N2CCN(c3cccc(Cl)c3)CC2)S(=O)(=O)c2c(C)noc2C)cc1 | -10.4% | 29.1 µM [rising, single point] | –
3 | O=C(COc1ccccc1)N1CCN(S(=O)(=O)c2cccs2)CC1 | 25.7% | 14.6 µM [rising, single point] | –
4 | COc1ccc(NC(=O)c2cccc(-c3ccc(O)cc3)c2)cn1 | 12.1% | 32.6 µM [falling, single point] | –
5 | COc1ccc(S(=O)(=O)N[C@H](C(=O)N2CC[C@@]3(O)CCCC[C@H]3C2)c2ccccc2)cc1 | -17.3% | 6.51 µM [falling, single point] | –
6 | Cc1ccc(CN(CC(=O)NCc2ccc3c(c2)OCO3)C(=O)c2csnn2)cc1 | 11.2% | 18.4 µM [rising, partial curve, poor fit] | –
7 | Cc1ccc(NC(=O)C2CCN(S(=O)(=O)c3ccc4c(c3)oc(=O)n4C)CC2)cc1 | 59.7% | 16.4 µM [rising, single point] | 29.1 µM [rising, single point]
8 | COc1ccc(Br)cc1C(=O)Nc1cccc(C)c1 | 6.24% | 0.0092 µM [rising, full curve, poor fit] | 6.51 µM [rising, single point]
9 | CN(C(=O)C1CCOC1)c1nnc(-c2ccccn2)s1 (configuration not stated) | 4.03% | 0.461 µM [falling, full curve] | 0.231 µM [falling, full curve]
10 | COc1ccc2nc(SCC(=O)N(C)C3CCCCC3)[nH]c2c1 | -59.2% | 0.0517 µM [falling, full curve] | 3.26 µM [falling, full curve]
11 | CC(C)(C)C1CCC(=NOC(=O)c2ccc(F)cc2)CC1 (configuration not stated) | 2.74% | – | 0.00411 µM [falling, full curve, poor fit]
12 | Cc1csc(=O)n1CCC(=O)OCC(=O)Nc1ccc(F)c(F)c1F | -3.42% | – | –
13 | O=C(Cc1ccc(F)cc1)N/N=C/c1ccncc1 | -17% | – | –
14 | Cc1ccc(Cl)cc1NC(=S)N(CCN(C)C)Cc1cccs1 | – | – | 6.51 µM [rising, partial curve, poor fit]
15 | CCN(CC)S(=O)(=O)c1ccc(N2CCCC2)c(C(=O)OCC(=O)/C(C#N)=C(\C)N)c1 | 3.05% | 0.517 µM [rising, full curve] | –
16 | CCOc1c(OC(C)=O)ccc(/C=C2\N=C(SCC)SC2=O)c1[N+](=O)[O-] | 0.536% | – | –

Fetched by compound from above, 2 records:
Row | SMILES | cell number change | AC50 [1] | AC50 [2]
12 | Cc1csc(=O)n1CCC(=O)OCC(=O)Nc1ccc(F)c(F)c1F | -3.42% | – | –
5 | COc1ccc(S(=O)(=O)N[C@H](C(=O)N2CC[C@@]3(O)CCCC[C@H]3C2)c2ccccc2)cc1 | -17.3% | 6.51 µM [falling, single point] | –
